Results are given in words; binding and its absence hold for the method and conditions named. In cells and extracts the contact can be indirect. Here binding means that the protein was enriched with, or labelled near, the bait; the list need not be complete. For some assays here: Where a sequence is shown, tags or fusion partners need not be part of it.

One assay has as its target T1, BLTP2-1703-1901-GST (UniProt Q14667).
T1 sequence: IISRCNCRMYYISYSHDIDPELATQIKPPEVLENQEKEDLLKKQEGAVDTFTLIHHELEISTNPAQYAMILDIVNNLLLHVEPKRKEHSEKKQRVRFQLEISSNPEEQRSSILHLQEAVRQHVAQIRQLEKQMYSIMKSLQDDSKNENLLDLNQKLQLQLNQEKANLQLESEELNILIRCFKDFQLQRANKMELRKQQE
Description: affinity purification with mass spectrometry.

Assay [1] has as its target BLTP2-GFP (bridge-like lipid transfer protein 2) (UniProt Q14667). Description: affinity purification with mass spectrometry.

B1: endogenous SCAMP3 (mouse kidney) (protein, UniProt O35609 1-349)
chain: MAQSRDTGNPFPDSGELDNPFQDPAVIQHRPSQQYATLDVYNPFENREPPPAYEPPAPAPAPLPPPSAPSVQSSRKLSPTEPRNYGSYSTQASAAAATAELLKKQEELNRKAEELDRRERELQHVALGGAGTRQNNWPPLPSFCPVKPCFFQDISMEIPQEFQKTVSTMYYLWMCSTLALLLNFFACLARFCVDTGSGSGFGLSMLWLLLFTPCSFVCWYRPMYKAFRSDSSFNFFVFFFIFFVQDVFFVLQAIGIPGWGFSGWVTALVVVGSKPAVAVLMLLVALLFTGIAVLGIVMLKRIHSLYRQTGASFQKAQQEFAAGVFSNPAVRTAAANAAAGAAENAFRAP
As to B1, the binding entry in the assay with BLTP2-1703-1901-GST is listed as “binds”.

B2: endogenous SCAMP3 (HEK293 cells) (protein, UniProt O14828 1-347)
chain: MAQSRDGGNPFAEPSELDNPFQDPAVIQHRPSRQYATLDVYNPFETREPPPAYEPPAPAPLPPPSAPSLQPSRKLSPTEPKNYGSYSTQASAAAATAELLKKQEELNRKAEELDRRERELQHAALGGTATRQNNWPPLPSFCPVQPCFFQDISMEIPQEFQKTVSTMYYLWMCSTLALLLNFLACLASFCVETNNGAGFGLSILWVLLFTPCSFVCWYRPMYKAFRSDSSFNFFVFFFIFFVQDVLFVLQAIGIPGWGFSGWISALVVPKGNTAVSVLMLLVALLFTGIAVLGIVMLKRIHSLYRRTGASFQKAQQEFAAGVFSNPAVRTAAANAAAGAAENAFRAP
As for B2, in assay [1], the binding result is “binds”.

For the origin of these results see publication doi:10.1101/2025.04.17.649455.
